Measurements from patent US20060073504A1, “Treatment of pain by inhibition of caspase signaling” (The Regents of the University of California, priority 2004, published 2006).
Structures can show the parent of a compound that is named as a salt. Some of these results come from one statement about several compounds together. At least one structure is not confirmed: it was looked up by name or label, or the drawing left a doubt.

Legend:
[1] = tested on: mechanical nociceptive threshold; experiment: Effect of algesic agents on mechanical nociceptive (paw-withdrawal) threshold; format: in vivo, rat; conditions: 100 ng/paw i.d.
Protocol: Experiments were performed on 220-260-g male Sprague-Dawley rats (Charles River, Fremont, Calif., USA). Rats were housed in groups of 2 under a 12-h light-dark cycle. Food and water were available ad libitum. Experiments were carried out in accordance with NIH regulations for the care and use of animals in research, and under approval of the Institutional Animal Care and Use Committee of the University of California, San Francisco.
The nociceptive mechanical flexion reflex was quantified with an Ugo Basile Analgesymeter® (Stoelting, Chicago, Ill.), which applies a linearly increasing mechanical force to the dorsum of the rat's hind paw. Mechanical paw-withdrawal thresholds were determined in control (saline treated) and test agent treated rats. Four readings were taken at 5-min intervals and the mean of the last three readings were used to define the baseline paw-withdrawal threshold (Aley and Levine, 1999; Aley et al., 2001). The time at which the readings were taken was based on the time course of each test agent (described in results).
Algesic agents employed in this study were: vincristine sulfate (VCR), 2′,3′-dideoxycytidine (ddC), streptozotocin sulfate (STZ), tumor necrosis factor-α (TNFα) prostaglandin E2 (PGE2), epinephrine (Epi) (Sigma, St. Louis, Mo.) and N-Acetyl Sphingosine (C2-Ceramide obtained from Upstate USA, Inc, Lake Placid, N.Y.). […]

[2] = tested on: mechanical nociceptive threshold; conditions: single i.v. injection: VCR 200 μg/kg, STZ 50 mg/kg, cited from earlier work

SMILES	onset of reduction in nociceptive threshold [1] [in]	persistence of hyperalgesia ([2]; ddC 50 mg/kg)	reduction in paw-withdrawal / nociceptive threshold [2] [%]
CCCCC[C@H](O)/C=C/[C@H]1[C@H](O)CC(=O)[C@@H]1C/C=C\CCCC(=O)O [PGE2, prostaglandin E2]	< 5	–	–
CN(N=O)C(=O)N[C@@H]1[C@@H](O)[C@H](O)[C@@H](CO)O[C@@H]1O [STZ, streptozotocin sulfate]	–	over 15 days	> 30
